The list does not hold the whole screen: it gathers tests that were run many times, whatever their T/C, doses with no T/C, and many T/C values between a quarter and a half above the control. Other doses and runs of a compound stand elsewhere. T/C gives the treated animals as a percentage of the vehicle group. Some doses have a count of surviving animals in place of a T/C: the source files T/C as zero there, which appears to mark a toxic dose or a test without result, not a measured value. Some survivor counts are full or nearly so, which does not show that the dose was tolerated: the source hardly ever lists a survival T/C far under the control, and the zero likely stands for such cases as well. Counts of survivors are from the toxicity check (mostly the fifth day) where no day follows; animals may have died later. Schedule codes are those of the source, read here as Q, the interval in days (D) or hours (H), X, the number of doses. Some entries were tested several times; the results are listed from low to high. Additions like (4×) give the number of equal values in this list. Where survival is the endpoint, this PubChem deposit counts one and a half times the control or more as active, and values a quarter to a half above the control carry no call in these data; other NCI protocols may use other cut-offs. Some T/C values carry the count of animals alive at the toxicity check (mostly the fifth day); where none is given, no animal had died by that day.
Test system: CD2F1 mice, L1210 leukemia ip, survival T/C
Test: NCI In Vivo Anticancer Drug Screen. Data for tumor model L1210 Leukemia (intraperitoneal) in CD2F1 (CDF1) mice
Conditions: higher T/C = longer survival
How it was run: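 Compound-dosed mice with transplantable tumor versus matched vehicle controls; endpoint ratio T/C reported.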

[1] = T/C endpoint: mean survival time, dose: 50.0 mg/kg/injection, schedule: Q04DX003 (ip), vehicle: Klucel (hydroxypropylcellulose) (HPC)
[2] = T/C endpoint: mean survival time, dose: 100.0 mg/kg/injection, schedule: Q04DX003 (ip), vehicle: Klucel (hydroxypropylcellulose) (HPC)
[3] = T/C endpoint: mean survival time, dose: 100.0 mg/kg/injection, schedule: Q04DX003 (ip), vehicle: saline with Tween-80
[4] = T/C endpoint: mean survival time, dose: 200.0 mg/kg/injection, schedule: Q04DX003 (ip), vehicle: saline with Tween-80
[5] = T/C endpoint: mean survival time, dose: 400.0 mg/kg/injection, schedule: Q04DX003 (ip), vehicle: saline with Tween-80
[6] = T/C endpoint: mean survival time, dose: 400.0 mg/kg/injection, schedule: Q04DX003 (ip), vehicle: saline
[7] = T/C endpoint: mean survival time, dose: 400.0 mg/kg/injection, schedule: Q01DX001 (ip), vehicle: saline with Tween-80
[8] = T/C endpoint: mean survival time, dose: 400.0 mg/kg/injection, schedule: Q01DX009 (ip), vehicle: saline with Tween-80

CC(O)C(=O)O.CCCCOC(=O)CC(O)(CC(=O)OCCCC)C(=O)OCCCC.[Cl-].[Cl-].[NH2-].[NH2-].[Pt+4] was tested, and the T/C (T/C endpoint: mean survival time, dose: 12.5 mg/kg/injection, schedule: Q04DX003 (ip), vehicle: Klucel (hydroxypropylcellulose) (HPC)) was 148 % of control, the T/C (T/C endpoint: mean survival time, dose: 25.0 mg/kg/injection, schedule: Q04DX003 (ip), vehicle: Klucel (hydroxypropylcellulose) (HPC)) was 136, 139, 146 % of control and the T/C [1] was 127 % of control. The survivor count [1] was 3 of 6, the T/C [2] was 138 and 146 % of control and the survivor count [2] was 0 of 6 and 6 of 6. For the same molecule, the survivor count (T/C endpoint: mean survival time, dose: 200.0 mg/kg/injection, schedule: Q04DX003 (ip), vehicle: Klucel (hydroxypropylcellulose) (HPC)) was 0 of 6 (2×), 5 of 6, 6 of 6 and the survivor count (T/C endpoint: mean survival time, dose: 400.0 mg/kg/injection, schedule: Q04DX003 (ip), vehicle: Klucel (hydroxypropylcellulose) (HPC)) was 6 of 6.

CCC(C)N(C)/N=N/c1nc[nH]c1C(N)=O (configuration not stated) was tested, and the T/C [3] was 127 % of control, the T/C (T/C endpoint: mean survival time, dose: 133.0 mg/kg/injection, schedule: Q01DX009 (ip), vehicle: saline with Tween-80) was 132 % of control [5 of 6 alive] and the T/C [4] was 138 % of control. The survivor count (T/C endpoint: mean survival time, dose: 300.0 mg/kg/injection, schedule: Q01DX009 (ip), vehicle: saline with Tween-80) was 3 of 6 and the survivor count [5] was 1 of 6.

O=C(O)/C=C(/CC(=O)O)C(=O)O was tested, and the survivor count [6] was 2 of 6.

For OC1C2CCC1C(N1CCOCC1)CC2 (configuration not stated), the survivor count [5] was 0 of 6.

NCc1ccc(OCc2nc(N)nc(N)c2-c2ccc(Cl)c(Cl)c2)cc1 was tested, and the survivor count [7] was 0 of 6.

In the case of CC1=CC(=Nc2ccc(N(CCCl)CCCl)cc2)C=C(C)C1=O, the T/C (T/C endpoint: mean survival time, dose: 6.25 mg/kg/injection, schedule: Q01DX009 (ip), vehicle: Klucel (hydroxypropylcellulose) (HPC)) is reported as 128 % of control, the T/C (T/C endpoint: mean survival time, dose: 12.5 mg/kg/injection, schedule: Q01DX009 (ip), vehicle: Klucel (hydroxypropylcellulose) (HPC)) is reported as 110, 114, 120, 127 % of control and the T/C (T/C endpoint: mean survival time, dose: 25.0 mg/kg/injection, schedule: Q01DX009 (ip), vehicle: Klucel (hydroxypropylcellulose) (HPC)) is reported as 127, 132 (2×), 134 % of control. For the same molecule, the T/C (T/C endpoint: mean survival time, dose: 50.0 mg/kg/injection, schedule: Q01DX009 (ip), vehicle: Klucel (hydroxypropylcellulose) (HPC)) was 97, 110 (2×), 125, 137 % of control, the survivor count (T/C endpoint: mean survival time, dose: 100.0 mg/kg/injection, schedule: Q01DX009 (ip), vehicle: Klucel (hydroxypropylcellulose) (HPC)) was 3 of 3 and the survivor count (T/C endpoint: mean survival time, dose: 200.0 mg/kg/injection, schedule: Q01DX009 (ip), vehicle: Klucel (hydroxypropylcellulose) (HPC)) was 3 of 3.

COC(=O)c1cn(C2OC(CO)C(O)C2O)c2ncnc(N)c12 (configuration not stated) was tested, and the T/C (T/C endpoint: mean survival time, dose: 25.0 mg/kg/injection, schedule: Q01DX009 (ip), vehicle: water) was 136 % of control.

For COB(C1CCCCC1)C1CCCCC1, the survivor count (T/C endpoint: mean survival time, dose: 400.0 mg/kg/injection, schedule: Q01DX009 (ip), vehicle: other) was 5 of 6.

For CC(C)CC(NC(=O)C(Cc1c[nH]c2ccccc12)NC(=O)OC(C)(C)C)C(=O)NN (configuration not stated), the T/C (T/C endpoint: mean survival time, dose: 200.0 mg/kg/injection, schedule: Q01DX009 (ip), vehicle: saline) was 142 % of control [5 of 6 alive].

For O=CO.[Cu+2], the survivor count (T/C endpoint: mean survival time, dose: 20.0 mg/kg/injection, schedule: Q01DX001 (ip), vehicle: saline) was 0 of 6, the survivor count (T/C endpoint: mean survival time, dose: 40.0 mg/kg/injection, schedule: Q01DX001 (ip), vehicle: saline) was 0 of 6 and the survivor count (T/C endpoint: mean survival time, dose: 80.0 mg/kg/injection, schedule: Q01DX001 (ip), vehicle: saline) was 0 of 6.

With Nc1ccn(C2CC3[O][Sn]([c]4ccccc4)([c]4ccccc4)[O]CC3O2)c(=O)n1 (configuration not stated) the survivor count (T/C endpoint: mean survival time, dose: 100.0 mg/kg/injection, schedule: Q01DX005 (ip), vehicle: distilled water + Tween-80) was 0 of 6.

With Oc1cc2ccccc2c(-c2c(O)c(O)cc3ccccc23)c1O the survivor count (T/C endpoint: mean survival time, dose: 200.0 mg/kg/injection, schedule: Q01DX009 (ip), vehicle: saline with Tween-80) was 6 of 6 and the survivor count [8] was 0 of 6 and 2 of 6.

c1cc(-n2nnc3cnccc32)ccn1 was tested, and the survivor count (T/C endpoint: mean survival time, dose: 100.0 mg/kg/injection, schedule: Q04DX003 (ip), vehicle: saline) was 1 of 6.

For CCC(C)C1NC(=O)C(NC(=O)c2c3nc4c(C(=O)NC5C(=O)NC(C(C)CC)C(=O)N6CCCC6C(=O)N(C)CC(=O)N(C)C(C(C)C)C(=O)OC5C)cc([N+](=O)[O-])c(C)c4oc-3c(C)c(=O)c2N)C(C)OC(=O)C(C(C)C)N(C)C(=O)CN(C)C(=O)C2CCCN2C1=O (configuration not stated), the survivor count (T/C endpoint: mean survival time, dose: 0.8 mg/kg/injection, schedule: Q01DX009 (ip), vehicle: water) was 6 of 6 and the survivor count (T/C endpoint: mean survival time, dose: 1.6 mg/kg/injection, schedule: Q01DX009 (ip), vehicle: water) was 3 of 6.

CN(C)N=Nc1ccc(C#N)cc1 was tested, and the survivor count (T/C endpoint: mean survival time, dose: 177.0 mg/kg/injection, schedule: Q01DX009 (ip), vehicle: Klucel (hydroxypropylcellulose) (HPC)) was 2 of 6, the survivor count (T/C endpoint: mean survival time, dose: 266.0 mg/kg/injection, schedule: Q01DX009 (ip), vehicle: Klucel (hydroxypropylcellulose) (HPC)) was 0 of 6 and the survivor count (T/C endpoint: mean survival time, dose: 400.0 mg/kg/injection, schedule: Q01DX009 (ip), vehicle: Klucel (hydroxypropylcellulose) (HPC)) was 0 of 6. For the same molecule, the survivor count (T/C endpoint: mean survival time, dose: 600.0 mg/kg/injection, schedule: Q01DX009 (ip), vehicle: Klucel (hydroxypropylcellulose) (HPC)) was 0 of 6.

In the case of O=C1SC(c2ccccc2)=S=C1c1ccccc1, the survivor count (T/C endpoint: median survival time, dose: 800.0 mg/kg/injection, schedule: Q01DX009 (ip), vehicle: saline with Tween-80) is reported as 4 of 6.

In the case of COc1cccc(C(=O)C=C(C(F)(F)F)C(F)(F)F)c1, the survivor count (T/C endpoint: mean survival time, dose: 50.0 mg/kg/injection, schedule: Q01DX009 (ip), vehicle: saline with Tween-80) is reported as 0 of 6.

With CN(C)/N=N/c1[nH]cnc1C(N)=O.[Cl][Cu][Cl] the survivor count (T/C endpoint: mean survival time, dose: 25.0 mg/kg/injection, schedule: Q04DX003 (ip), vehicle: water) was 3 of 6 and the survivor count (T/C endpoint: mean survival time, dose: 64.0 mg/kg/injection, schedule: Q01DX001 (ip), vehicle: distilled water + Tween-80) was 0 of 6.

COc1ccc(NC(=O)Nc2ccc([N+](=O)[O-])cc2OC)c(Cl)c1 was tested, and the survivor count (T/C endpoint: mean survival time, dose: 200.0 mg/kg/injection, schedule: Q01DX001 (ip), vehicle: saline with Tween-80) was 3 of 3.

For ClC1=CCCCC1, the survivor count (T/C endpoint: mean survival time, dose: 200.0 mg/kg/injection, schedule: Q04DX003 (ip), vehicle: acetone) was 1 of 6 and the survivor count (T/C endpoint: mean survival time, dose: 400.0 mg/kg/injection, schedule: Q04DX003 (ip), vehicle: acetone) was 0 of 6.

With CCOc1ccnc(OCC)n1 the survivor count [5] was 1 of 6.

CN=Cc1ccc(OC)cc1 was tested, and the survivor count [4] was 2 of 6 and the survivor count [5] was 0 of 6.

CC1=C(N=[N+]=[N-])C(=O)c2ccccc2C1=O was tested, and the survivor count (T/C endpoint: mean survival time, dose: 400.0 mg/kg/injection, schedule: Q04DX002 (ip), vehicle: saline with Tween-80) was 0 of 3.

For Nc1ccc(S(=O)(=O)F)c(Cl)c1, the survivor count [8] was 2 of 6.

With O=C(NNC(=O)c1cccnc1)Nc1cccc(Cl)c1Cl the survivor count (T/C endpoint: mean survival time, dose: 100.0 mg/kg/injection, schedule: Q01DX009 (ip), vehicle: saline with Tween-80) was 3 of 3.

For CCOP(=O)(NCc1ccco1)OCC, the survivor count (T/C endpoint: mean survival time, dose: 200.0 mg/kg/injection, schedule: Q01DX001 (ip), vehicle: carboxymethylcellulose (CMC)) was 2 of 4 and the survivor count (T/C endpoint: mean survival time, dose: 400.0 mg/kg/injection, schedule: Q01DX001 (ip), vehicle: carboxymethylcellulose (CMC)) was 0 of 4.

For CCc1ccc(O)cc1O, the survivor count (T/C endpoint: mean survival time, dose: 200.0 mg/kg/injection, schedule: Q04DX003 (ip), vehicle: saline) was 2 of 6 and the survivor count [6] was 0 of 6.

CC(C)(C)OC(=O)NC(CCCCNC(=O)C(F)(F)F)C(=O)ON1C(=O)CCC1=O (configuration not stated) was tested, and the survivor count [4] was 6 of 6 and the survivor count [5] was 2 of 6.

In the case of CC1CCS(=O)(=O)CC1.[Cl][Hg][Cl], the survivor count (T/C endpoint: mean survival time, dose: 2.5 mg/kg/injection, schedule: Q04DX003 (ip), vehicle: saline) is reported as 3 of 6, the survivor count (T/C endpoint: mean survival time, dose: 5.0 mg/kg/injection, schedule: Q04DX003 (ip), vehicle: saline with Tween-80) is reported as 1 of 6 and the survivor count (T/C endpoint: mean survival time, dose: 10.0 mg/kg/injection, schedule: Q04DX003 (ip), vehicle: saline with Tween-80) is reported as 0 of 6. The survivor count (T/C endpoint: mean survival time, dose: 20.0 mg/kg/injection, schedule: Q04DX003 (ip), vehicle: saline with Tween-80) was 0 of 6, the survivor count [3] was 0 of 6 and the survivor count [4] was 0 of 6. The survivor count [5] was 0 of 6.

CCCCc1c(C)[nH]c(=S)[nH]c1=O was tested, and the survivor count [5] was 6 of 6.

CCc1ccc2ccccc2c1N was tested, and the survivor count (T/C endpoint: mean survival time, dose: 100.0 mg/kg/injection, schedule: Q01DX001 (ip), vehicle: saline with Tween-80) was 3 of 6 and the survivor count [7] was 2 of 6.

Reference: PubChem BioAssay AID256 (DTP/NCI, 2004)
